The nature of the assay: qHTS Assay for Lipid Storage Modulators in Drosophila S3 Cells.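 For cell number change: cells counted by Cell Tracker Red CMTPX staining in the red channel.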 To be noted: BODIPY lipid droplet fluorescence, 18-24 h; for cell number change: measured here: cell count max response, cells fed with added oleic acid. The gist of the method: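 Laser-scanning cytometry quantifies lipid droplet accumulation (500–530 nm total intensity; droplet/cell object ratio) in oleic acid-fed (400 uM added) Drosophila S3 cells treated with a concentration series. 20 uM Triacsin C defined 100% inhibition.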

The mark [1] stands for this setting: measured here: cell number channel AC50, cells fed with added oleic acid.
The mark [2] stands for this setting: measured here: lipid fluorescence (Fed channel) AC50, cells fed with added oleic acid.

This is one part of the list. The main result of the screen is listed elsewhere. These columns were measured beside it and carry no call. Compounds called inactive in the main read-out are mostly missing here. Words in brackets tell the shape of the fitted curve; partial curves, single points and poor fits give uncertain potencies.

With `CCNC(=S)NS(=O)(=O)c1ccccc1`, the cell number change is -19.8%.
Consider `Cc1nc2sc(C(c3ccccc3)N3CCN(c4ccccc4F)CC3)c(O)n2n1` (stereo unspecified), for which the cell number change was found to be 171%. Moreover, the AC50 under setting [1] is 16.4 µM [rising, partial curve]. The AC50 under setting [2] was 16.4 µM [rising, partial curve].
`Cc1cccc(N(CC(=O)NCC2CCCO2)C(=O)CNS(=O)(=O)c2ccc(Cl)cc2)c1` (stereo unspecified): the cell number change amounted to 25.8%.
For the molecule `Cc1ccc(C(=O)NC(C)c2ccc3c(c2)OCO3)s1` (stereo unspecified), the cell number change came to 14.9%.
As to `CCCS(=O)(=O)c1c(S(=O)(=O)CCC)c2c(N)cccn2c1C(=O)c1ccc(F)cc1`, the cell number change worked out at 6.75%. In addition, under setting [2], the AC50 was 2.91 µM [rising, single point].
For the molecule `CSc1nnc2c3c4c(sc3c(=O)n(-c3ccccc3)n12)CC(C)(C)OC4`, the cell number change is -3.23%. Besides, the AC50 under setting [2] is 29.1 µM [rising, single point].
Take `COc1ccc(N2CC(C(=O)Nc3nnc(SCCC4OCCO4)s3)CC2=O)cc1` (stereo unspecified): the cell number change is -45.7%. Moreover, the AC50 under setting [1] is 0.00461 µM [falling, full curve, poor fit]. In addition, the AC50 under setting [2] was 0.0058 µM [falling, full curve, poor fit].
As to `COCC(C)OC(=O)c1c(N)n(CCCN2CCOCC2)c2nc3ccccc3nc12` (stereo unspecified), the cell number change came to 18.7%. The AC50 under setting [2] is 1.84 µM [falling, single point].
In the case of `COc1cccc(-n2nc(C(=O)O)c3ccccc3c2=O)c1`, the cell number change was -85.3%. Moreover, under setting [1], the AC50 is 29.1 µM [falling, single point].
As to `C=CCSc1nc2nc(C)cc(C)n2n1`, the cell number change was determined as 19.8%.
Consider `COc1ccc(C(=O)Nn2cnc3scc(-c4cccs4)c3c2=O)c(O)c1`, for which the cell number change is 11.9%. Further, the AC50 under setting [2] is 4.11 µM [rising, full curve, poor fit].
Consider `COc1ccc(C)cc1S(=O)(=O)N(C)CC(=O)NC1CCCCCC1`, for which the cell number change worked out at 43.4%. For the same molecule, under setting [1], the AC50 was 0.13 µM [rising, full curve, poor fit]. The AC50 under setting [2] is 0.184 µM [rising, full curve].
As to `Cc1csc(SCC(=O)Nc2ccccc2C)n1`, the cell number change stood at 40.3%. In addition, the half-maximal activity concentration (AC50) under setting [1] was 29.1 µM [rising, single point]. Under setting [2], the AC50 was 20.6 µM [rising, partial curve, poor fit].
As to `COc1ccc(C2C(C(=O)N3CCCC3)c3cc(OC)c(OC)cc3C(=O)N2C)cc1` (stereo unspecified), the cell number change was -1.72%.
On to `CCN=C1Sc2nc3ccc(OCC)cc3cc2CN1CCOC`, for which the AC50 was 0.58 µM [rising, full curve] under setting [1] and 1.3 µM [rising, full curve] under setting [2].
On to `O=C1OCC2=C1C(c1ccc(Cl)cc1)CC(=O)N2c1ccc(F)cc1` (stereo unspecified), for which the cell number change was -17.8%.
For the molecule `O=C(CSc1nnnn1-c1cccc(C(=O)O)c1)NC(c1ccccc1)c1ccccc1`, the cell number change was 25.4%. Moreover, the AC50 under setting [2] was 0.00461 µM [falling, full curve, poor fit].
With `CCN(CC)C(=O)c1ccc(CS(=O)(=O)c2ccc(Br)cc2)cc1`, the cell number change is 1.46%. Under setting [2], the AC50 was 29.1 µM [rising, single point].
For `Cc1cccc(C(=O)NNC(=O)c2cc3cc4ccccc4nc3s2)c1`, the cell number change is -40.5%. Further, the AC50 under setting [1] was 16.4 µM [falling, partial curve]. The AC50 under setting [2] was 16.4 µM [falling, single point].
`Cc1cccc(Oc2nc(-c3ccccn3)nc3ccccc23)c1`: the cell number change turned out to be 10.6%. The half-maximal activity concentration (AC50) under setting [1] was 0.651 µM [rising, full curve, poor fit].
Regarding `O=C(NCC1OCCc2ccccc21)C1COc2ccccc2O1` (stereo unspecified), the cell number change came to 11.4%. For the same molecule, the AC50 under setting [1] is 6.51 µM [rising, single point].
For `Cc1cccc(C)c1NC(=O)CN(C)C(=O)c1ccc(-n2cncn2)c([N+](=O)[O-])c1`, the cell number change was 2.83%. The AC50 under setting [1] is 4.61 µM [rising, partial curve].
Consider `O=C1NCCc2c1[nH]c1ccc([N+](=O)[O-])cc21`, for which the cell number change is -38.9%. Moreover, the AC50 under setting [2] was 0.92 µM [rising, full curve].
Take `C[C@@H]1CC[C@H]2C(=O)N3[C@@H](CC[C@@H](C)[C@@H]3c3ccc(Br)cc3)C(=O)N2[C@H]1c1ccc(Br)cc1`: the cell number change is -14.5%. Moreover, the AC50 under setting [2] is 16.4 µM [rising, partial curve].
`O=C1CCCN1CCC1CCN(C2CC(=O)N(c3ccc(F)cc3)C2=O)CC1` (stereo unspecified): the cell number change is -8.91%. For the same molecule, the AC50 under setting [1] was 7.31 µM [falling, single point]. Moreover, the AC50 under setting [2] was 0.00517 µM [falling, full curve, poor fit].
Turning to `COc1ccc(OC)c(C2C=C(c3ccc(C)c(C)c3)Nc3nnnn32)c1` (stereo unspecified), the cell number change was -23%. Besides, the AC50 under setting [2] is 1.16 µM [rising, partial curve].
As for `Cc1ccc(S(=O)(=O)c2cc(Nc3ccccc3)ccc2O)cc1`, the cell number change is -57.7%. The AC50 under setting [1] is 20.6 µM [falling, single point].
As to `O=C(CC(c1ccccc1)c1cc(Br)ccc1O)NCCCN1CCOCC1` (stereo unspecified), the cell number change was 11.3%. Further, under setting [1], the AC50 was 0.00411 µM [rising, full curve, poor fit]. Besides, under setting [2], the AC50 was 0.58 µM [falling, single point].
On to `CC(C)(C)c1ccc(C(=O)NNc2cc(N3CCOCC3)nc(N3CCOCC3)n2)cc1`, for which the cell number change was -18.1%.
Consider `CCOC(=O)C(CCCOc1ccccc1)C(=O)OCC`, for which the cell number change is -37.5%. Moreover, the AC50 under setting [1] is 36.6 µM [falling, partial curve, poor fit].
Regarding `Cc1ccc(C)c(C(=O)O/N=C(\N)c2ccc(Br)cc2)c1`, the cell number change turned out to be 60%. For the same molecule, the AC50 under setting [1] was 23.1 µM [rising, single point].
For the molecule `O=C(N1CCN(Cc2ccccc2)CC1)C(Cl)(Cl)Cl`, the cell number change was determined as 3.23%. The AC50 under setting [2] is 0.461 µM [falling, full curve, poor fit].
Turning to `CNC(=O)CN(c1cccc2ccccc12)S(C)(=O)=O`, the cell number change was -0.86%.
Take `COc1ccccc1N1CCN(S(=O)(=O)c2cccc3nsnc23)CC1`: the cell number change was -40.2%. Under setting [1], the half-maximal activity concentration (AC50) is 32.6 µM [falling, single point]. For the same molecule, the AC50 under setting [2] was 29.1 µM [rising, partial curve].
Turning to `CN(C)CCN1C(=O)C(O)=C(C(=O)c2ccco2)C1c1ccccc1F` (stereo unspecified), the cell number change is -36.8%. For the same molecule, the AC50 under setting [1] was 0.58 µM [falling, full curve]. Besides, the AC50 under setting [2] was 6.51 µM [falling, partial curve].
As for `CCOC(=O)N1CCN(C(=O)CN(c2cccc(C(F)(F)F)c2)S(=O)(=O)c2ccccc2)CC1`, the cell number change is -10.7%. Also, the AC50 under setting [2] is 3.26 µM [falling, single point].
As to `CCOc1cc(-c2nccc3cc(OC)c(OC)cc23)cc(OCC)c1OCC`, the cell number change is -46.8%.
`O=C(COC(=O)Cc1ccc(F)cc1)Nc1ccc2[nH]c(=O)[nH]c2c1`: the cell number change is -19.6%. In addition, the AC50 under setting [1] was 0.461 µM [falling, full curve, poor fit]. Besides, the AC50 under setting [2] was 8.2 µM [falling, partial curve, poor fit].
In the case of `N#CC1=C(N)Oc2cc3ccccc3cc2C1c1cccnc1` (stereo unspecified), the cell number change was -10.7%. Under setting [2], the AC50 was 0.206 µM [rising, full curve, poor fit].
Regarding `CC1(C(=O)NCCOc2ccccc2Cl)CC1(Cl)Cl` (stereo unspecified), the cell number change is 5.8%.
`COCCOc1cc(NC(=O)c2ccccc2)c(Cl)cc1Cl`: the cell number change came out at 64.7%. Also, under setting [1], the AC50 was 29.1 µM [rising, partial curve, poor fit]. The AC50 under setting [2] is 16.4 µM [rising, single point].
Turning to `Cc1ccc(F)cc1NC(=O)N1CCNC(=O)C1CC(=O)Nc1cc(Cl)ccc1Cl` (stereo unspecified), the cell number change was -8.2%. Also, the half-maximal activity concentration (AC50) under setting [1] was 7.31 µM [rising, partial curve, poor fit].
Regarding `O=c1/c(=C/c2ccc(O)cc2)sc2n1CCCN=2`, the cell number change was -22.8%. The AC50 under setting [2] was 25.9 µM [falling, single point].
With `COC(=O)c1cn(C(=O)c2cc(OC)c(OC)c(OC)c2)c2ccccc12`, the cell number change was -32.8%. For the same molecule, under setting [1], the AC50 is 20.6 µM [falling, partial curve, poor fit].
`Cc1ccc(CCNC(=O)CN(C)S(=O)(=O)c2ccc3c(c2)c(=O)n(C)c(=O)n3C)cc1`: the cell number change was -16.3%. For the same molecule, under setting [1], the AC50 is 3.66 µM [rising, single point]. The AC50 under setting [2] was 18.4 µM [rising, single point].
In the case of `O=C(CCSCCC(=O)Nc1c(F)c(F)c(F)c(F)c1F)Nc1c(F)c(F)c(F)c(F)c1F`, the cell number change was -13.7%.
Turning to `Cc1ccc(C(=O)NCCc2c[nH]c3ccccc23)s1`, the cell number change was 11.5%. Further, the AC50 under setting [2] was 29.1 µM [falling, partial curve].
In the case of `CC(C)CC(C(=O)OCC(=O)c1c(N)n(C)c(=O)n(C)c1=O)N1C(=O)c2ccccc2C1=O` (stereo unspecified), the cell number change is -33.9%. Besides, the AC50 under setting [2] was 29.1 µM [falling, single point].
For `CC(=O)/C=C\c1cn(-c2ncc(C(F)(F)F)cc2Cl)c2ccccc12`, the cell number change is -6.45%. Further, the AC50 under setting [2] was 6.51 µM [falling, single point].
As to `CC(C)(C)n1nnnc1C(c1ccncc1)N1CCCCCC1` (stereo unspecified), the cell number change stood at 4.97%. Also, the AC50 under setting [2] was 0.00461 µM [rising, full curve, poor fit].
Take `Cc1nnc(NC(=O)CCSCCC(=O)Nc2nnc(C)s2)s1`: the cell number change was -22.6%. Moreover, the AC50 under setting [2] is 2.59 µM [falling, partial curve].
Consider `O=c1[nH]c(CNCc2cccnc2)nc2ccccc12`, for which the cell number change was -1.54%. Also, under setting [1], the AC50 was 0.116 µM [falling, full curve, poor fit].
Regarding `COc1ccc(C(=O)Nc2c(Cl)cc(Cl)cc2C(=O)N2CCOCC2)cc1`, the cell number change is 1.59%. In addition, the AC50 under setting [2] was 0.13 µM [falling, full curve].
Regarding `CN(CC(=O)Nc1cc(S(=O)(=O)N2CCCCCC2)ccc1Cl)Cc1ccc2c(c1)OCO2`, the cell number change stood at 24.6%. Further, under setting [2], the AC50 was 18.4 µM [rising, single point].
For `Cn1c(CNC(=O)CNC(=O)c2ccc(C(C)(C)C)cc2)cc(=O)n(C)c1=O`, the cell number change is 33.4%.
Take `CN1CCN(C(=O)CC23CC4CC(CC(C4)C2)C3)CC1`: the cell number change is -23.5%. Under setting [2], the AC50 was 0.00164 µM [falling, full curve, poor fit].
Take `CC1=C(C(=O)Nc2ccc(C)cc2C)C(c2cccc([N+](=O)[O-])c2)n2nc(C(=O)OC(C)C)nc2N1` (stereo unspecified): the cell number change was -21%. Besides, under setting [2], the AC50 was 4.11 µM [falling, single point].
Regarding `COc1ccc2c(c1)c1nc3n(c(=O)c1n2CC(=O)Nc1ccccc1)CCS3`, the AC50 under setting [2] is 0.116 µM [rising, single point].
In the case of `COc1ccc(NC(=O)CSc2nnnn2-c2ccc(OC)cc2)cc1`, the cell number change amounted to 10.5%.

For the origin of these results see PubChem BioAssay AID2685 (National Center for Advancing Translational Sciences (NCATS), 2010).
